Reference: patent publication US7002010B2, “Process for the preparation of morpholinones as light stabilizers” (Ciba Specialty Chemicals Corporation, priority 2000, dated 2006)

Assay: Discoloration of powder coatings based on a carboxy-functional polyester, cured in electric and gas ovens (yellowness index)
Settings: 0.60% stabilizer rel. to components 1 to 5, low YI = little discoloration
Experimental: To prepare the powder coating composition based on a carboxy-functional polyester, components 1 to 6 (formulation without additives) or components 1 to 7 (formulation containing the stabilizers) are employed in the sequence indicated (cf. Table 3).
The components weighed out in this way are mixed using a planetary stirrer. The mixture is then extruded on a prism extruder at 300 revolutions/minute and at 100° C. and is rolled out. The powder coating composition is coarsely comminuted using a bench cutter and is ground in a Retsch ZM-1 ultracentrifugal mill with a 0.75 mm annular-perforation screen at 15,000 revolutions/minute. Finally, the powder is passed through a 30 μm screen on a centrifugal screening machine.
The finished powder coating composition is sprayed electrostatically to a coat thickness of 70 lam onto aluminium panels using an ESB-Wagner corona cup gun at 60 kV. Some of the coated panels are cured at 180° C. for 90 minutes in an electric oven. The remaining coated panels are cured at 180° C. for 45 minutes in a gas oven with an NO2 content of 20 ppm. The yellowness index (YI) of the samples is determined in accordance with ASTM D 1925-70. Low YI values denote little discoloration, high YI values denote severe discoloration of the samples.

Structure (SMILES): CC(CO)(COC(C)(C)C)NC(C)(C)C(=O)[O-].[Na+] (centres unmarked) [Compound 201, sodium salt of 2-(2-tert-butoxy-1-hydroxymethyl-1-methyl-ethylamino)-2-methyl-propionic acid]
- Yellowness index after 90 minutes (ASTM D 1925-70) (curing 45 minutes in a gas oven at 180° C., NO2 content 20 ppm): 3.4
- Yellowness index after 90 minutes (ASTM D 1925-70) (curing 90 minutes in an electric oven at 180° C.): 2.8
